Publication PMC10070233
Results are given in words; binding and its absence hold for the method and conditions named. For part of these data: In cells and extracts the contact can be indirect. Some binding calls cover weakened binding; strength is not graded here. For part of these data: Where a sequence is shown, tags or fusion partners need not be part of it.

Protein sequences, listed by entry. Tags and fused reporters are not part of them. Lines headed by an entry give the natural chain unless they say otherwise; changes in a name come on top. Chains listed by the source or under a name are the forms on record and can include a tag or linker. Residues count along the entry.
UniProt P09382: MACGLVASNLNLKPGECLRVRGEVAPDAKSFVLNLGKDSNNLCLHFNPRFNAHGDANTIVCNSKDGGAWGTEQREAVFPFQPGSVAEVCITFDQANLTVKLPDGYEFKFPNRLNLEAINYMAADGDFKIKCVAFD
UniProt P47929: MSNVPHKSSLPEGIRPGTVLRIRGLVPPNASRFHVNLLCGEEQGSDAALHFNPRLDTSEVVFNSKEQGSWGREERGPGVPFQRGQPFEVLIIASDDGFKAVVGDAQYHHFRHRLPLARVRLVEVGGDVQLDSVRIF
UniProt O00214: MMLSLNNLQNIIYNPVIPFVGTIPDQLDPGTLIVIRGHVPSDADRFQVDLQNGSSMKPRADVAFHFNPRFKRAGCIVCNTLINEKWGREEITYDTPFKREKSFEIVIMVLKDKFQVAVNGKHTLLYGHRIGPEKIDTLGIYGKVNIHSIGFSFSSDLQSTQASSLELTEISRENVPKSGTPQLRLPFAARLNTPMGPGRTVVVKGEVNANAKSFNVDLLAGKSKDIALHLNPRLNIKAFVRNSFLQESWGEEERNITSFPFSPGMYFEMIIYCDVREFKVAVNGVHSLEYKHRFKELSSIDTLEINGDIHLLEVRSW
UniProt P11362: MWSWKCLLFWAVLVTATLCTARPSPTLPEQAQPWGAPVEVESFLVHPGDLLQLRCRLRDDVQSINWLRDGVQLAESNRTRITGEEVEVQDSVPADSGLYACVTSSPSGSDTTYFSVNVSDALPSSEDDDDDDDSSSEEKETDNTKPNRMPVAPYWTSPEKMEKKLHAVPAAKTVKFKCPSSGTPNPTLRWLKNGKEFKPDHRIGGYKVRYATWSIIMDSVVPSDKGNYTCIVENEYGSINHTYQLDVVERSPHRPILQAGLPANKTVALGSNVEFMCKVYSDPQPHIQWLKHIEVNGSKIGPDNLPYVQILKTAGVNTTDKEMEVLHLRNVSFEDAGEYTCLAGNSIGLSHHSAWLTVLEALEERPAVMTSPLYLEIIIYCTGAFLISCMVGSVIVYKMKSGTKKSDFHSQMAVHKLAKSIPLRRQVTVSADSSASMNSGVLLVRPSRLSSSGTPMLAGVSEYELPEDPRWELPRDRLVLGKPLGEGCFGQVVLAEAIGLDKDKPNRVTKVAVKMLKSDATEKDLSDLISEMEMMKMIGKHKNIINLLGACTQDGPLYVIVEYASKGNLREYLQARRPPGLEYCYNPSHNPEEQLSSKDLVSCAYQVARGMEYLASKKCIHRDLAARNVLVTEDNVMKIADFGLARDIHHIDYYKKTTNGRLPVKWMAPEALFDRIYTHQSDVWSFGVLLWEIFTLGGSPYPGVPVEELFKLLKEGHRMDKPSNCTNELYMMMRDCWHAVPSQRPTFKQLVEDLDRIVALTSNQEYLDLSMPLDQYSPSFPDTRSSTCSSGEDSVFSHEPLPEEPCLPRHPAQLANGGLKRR
extracellular region of FGFR1 fused to the Fc fragment of human IgG1: residues 22-376 of P11362
UniProt P17931: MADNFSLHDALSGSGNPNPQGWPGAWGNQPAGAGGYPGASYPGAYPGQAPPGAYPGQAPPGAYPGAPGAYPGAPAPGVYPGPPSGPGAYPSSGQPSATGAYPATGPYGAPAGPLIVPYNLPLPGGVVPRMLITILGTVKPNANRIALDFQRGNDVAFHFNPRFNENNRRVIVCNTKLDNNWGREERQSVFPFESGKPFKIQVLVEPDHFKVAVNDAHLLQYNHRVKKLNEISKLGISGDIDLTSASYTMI
UniProt P21802: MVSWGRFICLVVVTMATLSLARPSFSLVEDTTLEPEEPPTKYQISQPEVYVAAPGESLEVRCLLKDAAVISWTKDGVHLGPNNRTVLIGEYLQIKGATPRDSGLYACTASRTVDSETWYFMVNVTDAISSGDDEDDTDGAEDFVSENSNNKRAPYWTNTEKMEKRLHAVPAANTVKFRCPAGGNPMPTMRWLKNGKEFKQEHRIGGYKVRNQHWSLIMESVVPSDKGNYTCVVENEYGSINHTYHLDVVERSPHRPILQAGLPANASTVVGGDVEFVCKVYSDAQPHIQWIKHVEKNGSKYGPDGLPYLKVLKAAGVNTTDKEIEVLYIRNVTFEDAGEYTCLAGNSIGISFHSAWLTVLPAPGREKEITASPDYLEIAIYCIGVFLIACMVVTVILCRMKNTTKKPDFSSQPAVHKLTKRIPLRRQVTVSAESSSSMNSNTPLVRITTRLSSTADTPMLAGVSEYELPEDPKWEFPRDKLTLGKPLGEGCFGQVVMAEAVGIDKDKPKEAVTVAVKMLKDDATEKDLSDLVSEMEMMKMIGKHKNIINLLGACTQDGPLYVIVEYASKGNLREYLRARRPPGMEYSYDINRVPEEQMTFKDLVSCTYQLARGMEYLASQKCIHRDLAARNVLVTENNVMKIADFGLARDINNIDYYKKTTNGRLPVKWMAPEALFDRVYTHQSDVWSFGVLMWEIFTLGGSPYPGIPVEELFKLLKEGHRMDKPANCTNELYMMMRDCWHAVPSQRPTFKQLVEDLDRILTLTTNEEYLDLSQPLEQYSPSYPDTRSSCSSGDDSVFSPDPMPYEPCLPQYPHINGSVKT
UniProt P22607: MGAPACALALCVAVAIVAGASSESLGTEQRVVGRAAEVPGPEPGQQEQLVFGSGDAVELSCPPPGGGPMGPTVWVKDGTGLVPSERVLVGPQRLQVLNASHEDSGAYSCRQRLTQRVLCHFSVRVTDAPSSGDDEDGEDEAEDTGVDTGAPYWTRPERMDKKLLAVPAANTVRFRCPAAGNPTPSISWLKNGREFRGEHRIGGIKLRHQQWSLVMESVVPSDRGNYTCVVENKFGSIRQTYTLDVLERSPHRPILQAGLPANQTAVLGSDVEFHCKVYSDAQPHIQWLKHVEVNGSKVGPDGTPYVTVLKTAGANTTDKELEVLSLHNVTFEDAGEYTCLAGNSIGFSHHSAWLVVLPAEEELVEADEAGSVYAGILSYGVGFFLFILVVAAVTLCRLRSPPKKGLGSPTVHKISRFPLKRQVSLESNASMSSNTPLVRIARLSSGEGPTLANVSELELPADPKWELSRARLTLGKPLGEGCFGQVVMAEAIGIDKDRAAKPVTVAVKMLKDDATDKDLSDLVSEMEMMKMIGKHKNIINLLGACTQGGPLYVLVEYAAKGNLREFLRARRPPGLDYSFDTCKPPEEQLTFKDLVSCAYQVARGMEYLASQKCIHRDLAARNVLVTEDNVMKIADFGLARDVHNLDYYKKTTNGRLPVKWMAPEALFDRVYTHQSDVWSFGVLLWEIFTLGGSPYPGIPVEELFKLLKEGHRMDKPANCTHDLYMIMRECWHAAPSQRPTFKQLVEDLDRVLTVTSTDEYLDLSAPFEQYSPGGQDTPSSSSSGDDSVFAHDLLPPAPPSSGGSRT

Columns and labels:
galectin-1 (human) [1] = molecular target: galectin-1 (human) (UniProt P09382); assay: pull-down; purified His-tagged galectins (10-50 μg) bound to Ni-NTA resin, incubated with clarified cell lysate for 1 h at 4 °C in lysis buffer (50 mM Tris, 150 mM NaCl, 1 mM EDTA, 0.1% Nonidet P-40, pH 8.0); western blotting for FGFRs; only the target purified
galectin-7 (human) [2] = molecular target: galectin-7 (human) (UniProt P47929); assay: as above
galectin-8 (human) [3] = molecular target: galectin-8 (human) (UniProt O00214); assay: as above
[4] = molecular target: extracellular region of FGFR1 fused to the Fc fragment of human IgG1 (human) (UniProt P11362); assay: BLI; Octet RED K2; FGFR-Fc variants or Fc (25 μg/mL) immobilised in PBS on Protein-A sensors in a pairwise manner; galectins in solution (50 μg/mL); both purified
galectin-1 (human) [5] = molecular target: galectin-1 (human) (UniProt P09382); assay: far-Western, overlay or dot blot; galectin array: recombinant galectins (0.5 pmol) dot-blotted on PVDF, blocked with 3% BSA, incubated with FGFRs-Fc or Fc (0.9 pM) overnight; detection with anti-Fc mAb-HRP and chemiluminescence; both purified
galectin-2 (human) [6] = molecular target: T1, galectin-2 (human) (UniProt P05162); assay: as above
T1 sequence: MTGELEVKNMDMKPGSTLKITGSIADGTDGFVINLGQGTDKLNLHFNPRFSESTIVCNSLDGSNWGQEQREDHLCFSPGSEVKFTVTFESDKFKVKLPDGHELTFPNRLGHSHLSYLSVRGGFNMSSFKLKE

galectin-14 (human) = molecular target: T2, galectin-14 (human) (UniProt Q8TCE9); assay: as above
T2 sequence: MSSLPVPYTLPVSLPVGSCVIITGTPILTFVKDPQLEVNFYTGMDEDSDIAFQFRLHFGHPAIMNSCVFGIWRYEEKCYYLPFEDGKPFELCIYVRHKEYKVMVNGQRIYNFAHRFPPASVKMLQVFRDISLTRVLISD

galectin-10 (human) = molecular target: T3, galectin-10 (human) (UniProt Q05315); assay: as above
T3 sequence: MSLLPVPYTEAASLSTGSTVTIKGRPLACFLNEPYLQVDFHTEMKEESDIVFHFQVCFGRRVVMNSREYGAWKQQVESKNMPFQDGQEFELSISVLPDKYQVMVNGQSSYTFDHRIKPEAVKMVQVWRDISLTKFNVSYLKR

galectin-7 (human) [7] = molecular target: galectin-7 (human) (UniProt P47929); assay: as above
galectin-3 (human) [8] = molecular target: galectin-3 (human) (UniProt P17931); assay: as above
galectin-8 (human) [9] = molecular target: galectin-8 (human) (UniProt O00214); assay: as above
galectin-2 (human) [10] = molecular target: T1, galectin-2 (human); assay: pull-down; purified His-tagged galectins (10-50 μg) bound to Ni-NTA resin, incubated with clarified cell lysate for 1 h at 4 °C in lysis buffer (50 mM Tris, 150 mM NaCl, 1 mM EDTA, 0.1% Nonidet P-40, pH 8.0); western blotting for FGFRs; only the target purified
galectin-3 (human) [11] = molecular target: galectin-3 (human) (UniProt P17931); assay: as above
[12] = molecular target: extracellular region of FGFR2 fused to the Fc fragment of human IgG1 (human) (UniProt P21802); assay: BLI; Octet RED K2; FGFR-Fc variants or Fc (25 μg/mL) immobilised in PBS on Protein-A sensors in a pairwise manner; galectins in solution (50 μg/mL); both purified
[13] = molecular target: T4, extracellular region of FGFR4 fused to the Fc fragment of human IgG1 (human) (UniProt P22455); assay: as above
T4 sequence (chain, N-glycosylated (five putative N-glycosylation sites)): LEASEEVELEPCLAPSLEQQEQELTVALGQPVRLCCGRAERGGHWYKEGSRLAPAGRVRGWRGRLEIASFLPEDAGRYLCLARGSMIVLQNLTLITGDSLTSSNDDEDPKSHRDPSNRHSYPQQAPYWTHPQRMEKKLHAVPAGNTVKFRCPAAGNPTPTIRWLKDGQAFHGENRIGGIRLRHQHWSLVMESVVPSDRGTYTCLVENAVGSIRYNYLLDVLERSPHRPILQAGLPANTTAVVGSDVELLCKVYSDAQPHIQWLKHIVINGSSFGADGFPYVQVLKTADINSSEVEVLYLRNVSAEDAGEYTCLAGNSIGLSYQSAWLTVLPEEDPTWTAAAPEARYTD

[14] = molecular target: extracellular region of FGFR3 fused to the Fc fragment of human IgG1 (human) (UniProt P22607); assay: as above
[15] = molecular target: extracellular region of FGFR1 fused to the Fc fragment of human IgG1 (human) (UniProt P11362); assay: dynamic light scattering; DynaPro NanoStar; FGFR1-Fc (1 mg/mL), gal-1, gal-3, gal-7 (1 mg/mL), gal-8 (0.5 mg/mL) and their mixtures, 10 min at RT before measurement; 20 °C, PBS; both purified
[16] = molecular target: extracellular region of FGFR1 fused to the Fc fragment of human IgG1 (human) (UniProt P11362); assay: BLI; FGFR1-Fc on Protein-A sensors, galectins in solution, in the presence of 25 mM mannose; both purified

Substance	binding (galectin-1 (human) [1])	binding (galectin-7 (human) [2])	binding (galectin-8 (human) [3])	binding [4]	binding [12]	binding [13]	binding [14]	other results
FGFR1 expressed by a panel of human cell lines (JIMT-1, G292, DMS114) (from UniProt P11362 22-822) (receptor)	binds	binds	binds	–	–	–	–	–
extracellular region of FGFR2 fused to the Fc fragment of human IgG1 (from UniProt P21802 22-377) (Fc fusion)	–	–	–	–	–	–	–	binding (galectin-1 (human) [5]): binds; binding (galectin-2 (human) [6]): binds; binding (galectin-14 (human)): binds; binding (galectin-10 (human)): binds; binding (galectin-7 (human) [7]): binds; binding (galectin-3 (human) [8]): binds
extracellular region of FGFR3 fused to the Fc fragment of human IgG1 (from UniProt P22607 23-375) (Fc fusion)	–	–	–	–	–	–	–	binding (galectin-1 (human) [5]): binds; binding (galectin-2 (human) [6]): binds; binding (galectin-14 (human)): binds; binding (galectin-10 (human)): binds; binding (galectin-7 (human) [7]): binds; binding (galectin-3 (human) [8]): binds; binding (galectin-8 (human) [9]): binds
extracellular region of FGFR4 fused to the Fc fragment of human IgG1 (from UniProt P22455 22-369) (Fc fusion)	–	–	–	–	–	–	–	binding (galectin-1 (human) [5]): binds; binding (galectin-2 (human) [6]): binds; binding (galectin-14 (human)): binds; binding (galectin-10 (human)): binds; binding (galectin-7 (human) [7]): binds; binding (galectin-3 (human) [8]): binds; binding (galectin-8 (human) [9]): binds
full-length FGFR2 in U2OS cells stably transfected with FGFR2 (from UniProt P21802 22-821) (receptor)	–	binds	binds	–	–	–	–	binding (galectin-3 (human) [11]): binds
full-length FGFR4 in U2OS cells stably transfected with FGFR4 (from UniProt P22455 22-802) (receptor)	binds	binds	binds	–	–	–	–	binding (galectin-3 (human) [11]): binds
galectin-1 (from UniProt P09382 1-135)	–	–	–	binds	binds	binds	binds	binding [15]: binds; binding [16]: binds
galectin-8 (from UniProt O00214 1-317)	–	–	–	binds	binds	binds	binds	binding [15]: binds; binding [16]: binds

The next lines start with results.

binding (galectin-1 (human) [1])	binding (galectin-7 (human) [2])	binding (galectin-8 (human) [3])	binding [4]	binding [12]	binding [13]	binding [14]	Substance	other results
–	–	–	binds	–	–	–	N-terminal carbohydrate recognition domain of galectin-8 fused to the AviTag (from UniProt O00214 1-152) (domain or fragment)	–
binds	binds	binds	–	–	–	–	full-length FGFR1 in U2OS cells stably transfected with FGFR1 (from UniProt P11362 22-822) (receptor)	binding (galectin-2 (human) [10]): binds weakly
binds	binds	binds	–	–	–	–	full-length FGFR3 in U2OS cells stably transfected with FGFR3 (from UniProt P22607 23-806) (receptor)	binding (galectin-3 (human) [11]): binds
–	–	–	–	binds	binds	binds	galectin-3 (from UniProt P17931 1-250)	–
–	–	–	binds	binds	binds	binds	galectin-7 (from UniProt P47929 1-136)	binding [15]: binds; binding [16]: binds
